Data reported in patent US12497642B2, “Incorporation of unnatural nucleotides and methods of use in vivo thereof” (THE SCRIPPS RESEARCH INSTITUTE, priority 2017, dated 2025).
For part of its entries the source gives two or more results. The list is limited to them. The source may hold further records. The values listed for one entry differ for a reason that is not stated; they may come from other doses, times, organisms or constructs than stated.

By UniProt entry, the sequences of proteins in these tests, tags left out. Residues count along the entry.
UniProt P00582, 324-928 limits assumed: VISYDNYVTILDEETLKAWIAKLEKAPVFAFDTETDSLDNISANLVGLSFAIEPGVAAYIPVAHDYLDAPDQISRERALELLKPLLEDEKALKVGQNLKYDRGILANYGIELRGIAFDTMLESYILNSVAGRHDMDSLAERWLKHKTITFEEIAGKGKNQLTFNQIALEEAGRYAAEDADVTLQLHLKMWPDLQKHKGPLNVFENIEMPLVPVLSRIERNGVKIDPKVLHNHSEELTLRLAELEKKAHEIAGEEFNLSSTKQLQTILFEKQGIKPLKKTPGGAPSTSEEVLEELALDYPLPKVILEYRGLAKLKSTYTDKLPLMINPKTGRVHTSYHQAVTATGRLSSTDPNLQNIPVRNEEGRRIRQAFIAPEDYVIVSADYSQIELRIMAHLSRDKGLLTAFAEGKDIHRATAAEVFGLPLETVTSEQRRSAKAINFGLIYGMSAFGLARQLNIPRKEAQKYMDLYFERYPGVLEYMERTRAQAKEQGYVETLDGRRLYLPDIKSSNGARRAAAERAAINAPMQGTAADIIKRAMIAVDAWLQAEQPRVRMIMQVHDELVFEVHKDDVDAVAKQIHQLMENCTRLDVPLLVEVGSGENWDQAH

Biological target: Klenow fragment of E. coli DNA polymerase I (Escherichia coli, UniProt P00582)
Test: Steady-state kinetic assay of unnatural triphosphate insertion
Format: biochemical
Settings: insertion opposite dY = dA in template

## Cc1cn([C@H]2C[C@H](O)[C@@H](COP(=O)(O)OP(=O)(O)OP(=O)(O)O)O2)c(=O)[nH]c1=O [dTTP]
  Km: 460 nM and 50 nM
